# Further values from the same series stand in other lists.
# Test system: PRISM DNA-barcoded human tumour cell lines
# Experiment: PRISM pooled cell viability assay;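 also: 8 threefold dilutions from 10 µM with 5 days of exposure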
# Type: cell-based
# Design: Area under the curve (AUC): scale not given here
# Procedure: Cells were then lysed in TCL mRNA lysis buffer, and then PCR with reverse transcription was performed. Detection of the barcodes and univariate and multivariate analysis was then performed as previously described. Data analysis is described in the Supplementary Methods. Up-to-date code for our analysis is at the github link: https://github.com/cmap/dockerized_mts.
# For every gene with non-silent mutations in at least four cell-lines, we compared the AUC values between cells with and without those mutations using a t-test. This analysis was carried out for: (i) the full dataset; (ii) excluding cell lines with non-silent KRAS mutations; and (iii) excluding cell lines that have either KRAS or NRAS non-silent mutations.
smiles,measurement,setting,value
CCn1c(-c2cc(N3CCN(C4CC4)CC3)cnc2[C@H](C)OC)c2c3cc(ccc31)-c1csc(n1)C[C@H](NC(=O)[C@H]1[C@@H]3COC[C@@H]31)C(=O)N1CCC[C@H](N1)C(=O)OCC(C)(C)C2 [RMC-7977],Area under the curve (AUC),HCC1359_LUNG,0.7738
same,PRISM AUC,"HCC1359_LUNG, KRAS WT",0.637
same,Area under the curve (AUC),HCC1395_BREAST,0.7027
same,PRISM AUC,"HCC1395_BREAST, KRAS WT",0.7851
same,Area under the curve (AUC),HCC1419_BREAST,0.7199
same,PRISM AUC,"HCC1419_BREAST, KRAS WT",0.6938
same,Area under the curve (AUC),HCC1428_BREAST,0.7706
same,PRISM AUC,"HCC1428_BREAST, KRAS WT",0.6968
same,Area under the curve (AUC),HCC1438_LUNG,0.9076
same,Area under the curve (AUC),HCC1806_BREAST,0.8434
same,PRISM AUC,"HCC1806_BREAST, KRAS WT",0.6257
same,Area under the curve (AUC),HCC1937_BREAST,0.8942
same,PRISM AUC,"HCC1937_BREAST, KRAS WT",0.8028
same,Area under the curve (AUC),HCC1954_BREAST,0.6247
same,PRISM AUC,"HCC1954_BREAST, KRAS WT",0.4883
same,Area under the curve (AUC),HCC2108_LUNG,0.5948
same,Area under the curve (AUC),HCC4006_LUNG,0.4424
same,PRISM AUC,"HCC4006_LUNG, KRAS WT",0.2966
same,Area under the curve (AUC),HCSC1_CERVIX,0.9755
same,Area under the curve (AUC),HCT15_LARGE_INTESTINE,0.8156
same,Area under the curve (AUC),HCT116_LARGE_INTESTINE,0.6195
same,Area under the curve (AUC),HDMB03_CENTRAL_NERVOUS_SYSTEM,0.7078
same,Area under the curve (AUC),HDMYZ_HAEMATOPOIETIC_AND_LYMPHOID_TISSUE,0.7318
same,Area under the curve (AUC),HDQP1_BREAST,0.5274
same,PRISM AUC,"HDQP1_BREAST, KRAS WT",0.3029
same,Area under the curve (AUC),HEC1A_ENDOMETRIUM,0.6698
same,Area under the curve (AUC),HEC1B_ENDOMETRIUM,0.5914
same,Area under the curve (AUC),HEC1_ENDOMETRIUM,0.7812
same,Area under the curve (AUC),HEC6_ENDOMETRIUM,0.8337
same,PRISM AUC,"HEC6_ENDOMETRIUM, KRAS MUT",0.9413
same,Area under the curve (AUC),HEC59_ENDOMETRIUM,1
same,PRISM AUC,"HEC59_ENDOMETRIUM, KRAS WT",0.953
same,Area under the curve (AUC),HEC108_ENDOMETRIUM,0.7068
same,PRISM AUC,"HEC108_ENDOMETRIUM, KRAS WT",0.6207
same,Area under the curve (AUC),HEC116_ENDOMETRIUM,0.6479
same,Area under the curve (AUC),HEC151_ENDOMETRIUM,0.7673
same,PRISM AUC,"HEC151_ENDOMETRIUM, KRAS WT",0.5346
same,Area under the curve (AUC),HEC251_ENDOMETRIUM,0.603
same,PRISM AUC,"HEC251_ENDOMETRIUM, KRAS MUT",0.5893
same,Area under the curve (AUC),HEC265_ENDOMETRIUM,0.8822
same,PRISM AUC,"HEC265_ENDOMETRIUM, KRAS WT",0.8298
same,Area under the curve (AUC),HEL9217_HAEMATOPOIETIC_AND_LYMPHOID_TISSUE,0.6808
same,PRISM AUC,"HEL9217_HAEMATOPOIETIC_AND_LYMPHOID_TISSUE, KRAS WT",0.5969
same,Area under the curve (AUC),HEL_HAEMATOPOIETIC_AND_LYMPHOID_TISSUE,0.7753
same,PRISM AUC,"HEL_HAEMATOPOIETIC_AND_LYMPHOID_TISSUE, KRAS WT",0.8357
same,Area under the curve (AUC),HEP3B217_LIVER,0.8334
same,PRISM AUC,"HEP3B217_LIVER, KRAS WT",0.8015
same,Area under the curve (AUC),HEPG2_LIVER,0.5208
same,PRISM AUC,"HEPG2_LIVER, KRAS WT",0.4927
same,Area under the curve (AUC),HEYA8_OVARY,0.65
same,Area under the curve (AUC),HGC27_STOMACH,0.7654
same,PRISM AUC,"HGC27_STOMACH, KRAS WT",0.6479
same,Area under the curve (AUC),HH_HAEMATOPOIETIC_AND_LYMPHOID_TISSUE,0.9486
same,PRISM AUC,"HH_HAEMATOPOIETIC_AND_LYMPHOID_TISSUE, KRAS WT",0.7213
same,Area under the curve (AUC),HKA1_SKIN,0.7583
same,Area under the curve (AUC),HKGZCC_BILIARY_TRACT,0.3768
same,Area under the curve (AUC),HLF_LIVER,0.6104
same,PRISM AUC,"HLF_LIVER, KRAS WT",0.5492
same,Area under the curve (AUC),HMC18_BREAST,0.3264
same,Area under the curve (AUC),HOS_BONE,0.7412
same,PRISM AUC,"HOS_BONE, KRAS WT",0.7033
same,Area under the curve (AUC),HOTHC_THYROID,0.8838
same,Area under the curve (AUC),HPAC_PANCREAS,0.507
same,Area under the curve (AUC),HPAFII_PANCREAS,0.431
same,Area under the curve (AUC),HPBALL_HAEMATOPOIETIC_AND_LYMPHOID_TISSUE,1
same,Area under the curve (AUC),HS294T_SKIN,0.8964
same,PRISM AUC,"HS294T_SKIN, KRAS WT",0.9509
same,Area under the curve (AUC),HS611T_HAEMATOPOIETIC_AND_LYMPHOID_TISSUE,0.9844
same,Area under the curve (AUC),HS683_CENTRAL_NERVOUS_SYSTEM,0.6778
same,PRISM AUC,"HS683_CENTRAL_NERVOUS_SYSTEM, KRAS WT",0.6553
same,Area under the curve (AUC),HS729_SOFT_TISSUE,0.8586
same,PRISM AUC,"HS729_SOFT_TISSUE, KRAS WT",0.8632
same,Area under the curve (AUC),HS766T_PANCREAS,0.3954
same,PRISM AUC,"HS766T_PANCREAS, KRAS MUT",0.3087
same,Area under the curve (AUC),HS852T_SKIN,0.9207
same,PRISM AUC,"HS852T_SKIN, KRAS WT",0.8852
same,Area under the curve (AUC),HS939T_SKIN,0.9926
same,PRISM AUC,"HS939T_SKIN, KRAS WT",0.981
same,Area under the curve (AUC),HS944T_SKIN,0.6142
same,PRISM AUC,"HS944T_SKIN, KRAS WT",0.2298
same,Area under the curve (AUC),HSC1_SKIN,0.606
same,Area under the curve (AUC),HSC2_UPPER_AERODIGESTIVE_TRACT,0.6073
same,PRISM AUC,"HSC2_UPPER_AERODIGESTIVE_TRACT, KRAS WT",0.4147
same,Area under the curve (AUC),HSC3_UPPER_AERODIGESTIVE_TRACT,0.5697
same,PRISM AUC,"HSC3_UPPER_AERODIGESTIVE_TRACT, KRAS WT",0.3648
same,Area under the curve (AUC),HSC5_SKIN,0.6036
same,Area under the curve (AUC),HSKTC_OVARY,0.9527
same,Area under the curve (AUC),HT3_CERVIX,0.6736
same,Area under the curve (AUC),HT29_LARGE_INTESTINE,0.9035
same,Area under the curve (AUC),HT55_LARGE_INTESTINE,0.7332
same,Area under the curve (AUC),HT115_LARGE_INTESTINE,0.7054
same,PRISM AUC,"HT115_LARGE_INTESTINE, KRAS WT",0.6096
same,Area under the curve (AUC),HT144_SKIN,0.94
same,Area under the curve (AUC),HT1080_SOFT_TISSUE,0.5791
same,PRISM AUC,"HT1080_SOFT_TISSUE, KRAS WT",0.2097
same,Area under the curve (AUC),HT1197_URINARY_TRACT,0.8159
same,PRISM AUC,"HT1197_URINARY_TRACT, KRAS WT",0.68
same,Area under the curve (AUC),HT1376_URINARY_TRACT,0.6186
same,PRISM AUC,"HT1376_URINARY_TRACT, KRAS WT",0.4962
same,Area under the curve (AUC),HTMMT_ENDOMETRIUM,0.8603
same,Area under the curve (AUC),HT_HAEMATOPOIETIC_AND_LYMPHOID_TISSUE,0.7511
same,Area under the curve (AUC),HUCCT1_BILIARY_TRACT,0.4343
same,Area under the curve (AUC),HUG1N_STOMACH,0.8176
same,Area under the curve (AUC),HUH1_LIVER,0.7901
same,Area under the curve (AUC),HUH6_LIVER,0.7518
same,Area under the curve (AUC),HUH7_LIVER,0.903
same,Area under the curve (AUC),HUH28_BILIARY_TRACT,0.8849
same,Area under the curve (AUC),HUO9_BONE,1
same,Area under the curve (AUC),HUPT3_PANCREAS,0.398
same,Area under the curve (AUC),HUPT4_PANCREAS,0.3391
same,Area under the curve (AUC),IALM_LUNG,0.4787
same,Area under the curve (AUC),ICC4_BILIARY_TRACT,0.9763
same,Area under the curve (AUC),ICC8_BILIARY_TRACT,0.8603
same,Area under the curve (AUC),ICC9_BILIARY_TRACT,0.4855
same,Area under the curve (AUC),ICC10_BILIARY_TRACT,0.4866
same,Area under the curve (AUC),ICC12_BILIARY_TRACT,0.833
same,Area under the curve (AUC),ICC137_BILIARY_TRACT,0.6696
same,Area under the curve (AUC),IGR1_SKIN,0.8984
